Laboratory results as given in publication PMC3576711.
No constants are given. Whether binding was seen depends on the method and setting. For part of these data: A result given as binding can be weak or reduced; the word gives no strength. Where a sequence is shown, tags or fusion partners need not be part of it.

Assays:
Assay in all cases: two-hybrid; yeast strain PJ69-4a; AP µ subunits fused to the Gal4 activation domain, tails fused to the Gal4 DNA binding domain; growth on -Trp-Leu-His or -Trp-Leu-Ade plates at 30°C recorded at day 3
[1] = biological target: T1, UNC93B1 C-terminal cytosolic region (515-598 a.a.) fused to the Gal4 DNA binding domain (mouse) (UniProt Q8VCW4)
T1 sequence: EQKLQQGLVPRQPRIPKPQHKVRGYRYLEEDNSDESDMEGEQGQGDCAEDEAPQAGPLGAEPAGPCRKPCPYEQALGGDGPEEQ

[2] = biological target: TLR7 cytosolic region (mouse 862-1061 a.a.) fused to the Gal4 DNA binding domain (mouse)
[3] = biological target: TLR7 cytosolic region Y892A fused to the Gal4 DNA binding domain (mouse)

Row | Molecule | binding [1] | binding [2] | binding [3]
1 | AP-3Aμ fused to the Gal4 activation domain | no binding |  | 
2 | AP-4μ fused to the Gal4 activation domain (protein, UniProt O00189 1-453) MISQFFILSSKGDPLIYKDFRGDSGGRDVAELFYRKLTGLPGDESPVVMHHHGRHFIHIRHSGLYLVVTTSENVSPFSLLELLSRLATLLGDYCGSLGEGTISRNVALVYELLDEVLDYGYVQTTSTEMLRNFIQTEAVVSKPFSLFDLSSVGLFGAETQQSKVAPSSAASRPVLSSRSDQSQKNEVFLDVVERLSVLIASNGSLLKVDVQGEIRLKSFLPSGSEMRIGLTEEFCVGKSELRGYGPGIRVDEVSFHSSVNLDEFESHRILRLQPPQGELTVMRYQLSDDLPSPLPFRLFPSVQWDRGSGRLQVYLKLRCDLLSKSQALNVRLHLPLPRGVVSLSQELSSPEQKAELAEGALRWDLPRVQGGSQLSGLFQMDVPGPPGPPSHGLSTSASPLGLGPASLSFELPRHTCSGLQVRFLRLAFRPCGNANPHKWVRHLSHSDAYVIRI |  | binds | no binding
